Assay results published in article PMC3184163, “The Amino-Terminus of Nitric Oxide Sensitive Guanylyl Cyclase α1 Does Not Affect Dimerization but Influences Subcellular Localization” (PLoS ONE, 2011).
These are yes or no findings as the source states them, for the method shown. Binding seen in cells or lysates may run through a third protein. Some results given as binding are weak or reduced against the parent protein; the word gives no strength. For part of these data: Sequences can lack the tags named with a protein.

Chains of the proteins cited; added tags and fusions are not shown.
UniProt P20595: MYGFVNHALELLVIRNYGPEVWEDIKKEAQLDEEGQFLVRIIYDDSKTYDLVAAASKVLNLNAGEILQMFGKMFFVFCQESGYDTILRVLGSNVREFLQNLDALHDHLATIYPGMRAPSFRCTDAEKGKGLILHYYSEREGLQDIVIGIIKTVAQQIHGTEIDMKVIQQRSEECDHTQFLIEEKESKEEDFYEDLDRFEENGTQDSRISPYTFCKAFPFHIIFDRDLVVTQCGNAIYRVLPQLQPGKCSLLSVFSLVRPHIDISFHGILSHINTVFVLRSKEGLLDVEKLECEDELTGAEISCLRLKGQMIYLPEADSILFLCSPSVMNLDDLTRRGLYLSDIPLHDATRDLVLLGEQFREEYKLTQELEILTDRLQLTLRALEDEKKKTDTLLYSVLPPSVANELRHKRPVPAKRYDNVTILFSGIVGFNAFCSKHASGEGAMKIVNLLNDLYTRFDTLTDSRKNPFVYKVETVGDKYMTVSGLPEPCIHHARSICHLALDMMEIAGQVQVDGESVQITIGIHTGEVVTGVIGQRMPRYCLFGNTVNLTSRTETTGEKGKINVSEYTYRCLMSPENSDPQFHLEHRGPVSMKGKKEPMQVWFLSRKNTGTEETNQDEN

How the values were obtained:
[1] = molecular target: nitric oxide sensitive guanylyl cyclase β1-subunit with carboxy-terminal Strep Tag II (UniProt P20595); test: pull-down; same co-purification on Strep-Tactin through β1-S, quantified from Western blots instead of Coomassie gels (data not shown)
[2] = molecular target: nitric oxide sensitive guanylyl cyclase β1-subunit with carboxy-terminal Strep Tag II (UniProt P20595); test: pull-down; co-purification: α1 variant expressed with carboxy-terminally Strep Tag II tagged β1 in Sf-9; cytosolic fraction applied to Strep-Tactin Superflow resin; buffer W 100 mM Tris-HCl, 1 M NaCl, 1 mM EDTA, 1 mM benzamidine, 10 mM DTT, pH 8.0; eluted with 2.5 mM D-desthiobiotin; on ice or at 4°C; SDS-PAGE, Coomassie staining, densitometry; cells also cultured without supplement, with hemin (4 mg/l), or with hemin and lipid supplement
[3] = molecular target: rat β1-subunit, carboxy-terminally tagged with ECFP (rat) (UniProt P20595); test: FRET or BRET; FLIM-FRET in intact HEK-293 cells, 37°C, 48 h post transfection; ECFP donor and EYFP acceptor carboxy-terminal on the α1 variants and β1, or vice versa; negative control ECFP donor alone; 405 nm pulsed laser
[4] = molecular target: rat β1-subunit, carboxy-terminally tagged with EYFP (rat) (UniProt P20595); test: as above

B1: nitric oxide sensitive guanylyl cyclase α1-subunit, wild type (human) (natural protein, UniProt Q02108-1 1-690, looked up)
chain: MFCTKLKDLKITGECPFSLLAPGQVPNESSEEAAGSSESCKATVPICQDIPEKNIQESLPQRKTSRSRVYLHTLAESICKLIFPEFERLNVALQRTLAKHKIKESRKSLEREDFEKTIAEQAVAAGVPVEVIKESLGEEVFKICYEEDENILGVVGGTLKDFLNSFSTLLKQSSHCQEAGKRGRLEDASILCLDKEDDFLHVYYFFPKRTTSLILPGIIKAAAHVLYETEVEVSLMPPCFHNDCSEFVNQPYLLYSVHMKSTKPSLSPSKPQSSLVIPTSLFCKTFPFHFMFDKDMTILQFGNGIRRLMNRRDFQGKPNFEEYFEILTPKINQTFSGIMTMLNMQFVVRVRRWDNSVKKSSRVMDLKGQMIYIVESSAILFLGSPCVDRLEDFTGRGLYLSDIPIHNALRDVVLIGEQARAQDGLKKRLGKLKATLEQAHQALEEEKKKTVDLLCSIFPCEVAQQLWQGQVVQAKKFSNVTMLFSDIVGFTAICSQCSPLQVITMLNALYTRFDQQCGELDVYKVETIGDAYCVAGGLHKESDTHAVQIALMALKMMELSDEVMSPHGEPIKMRIGLHSGSVFAGVVGVKMPRYCLFGNNVTLANKFESCSVPRKINVSPTTYRLLKDCPGFVFTPRSREELPPNFPSEIPGICHFLDAYQQGTNSKPCFQKKDVEDGNANFLGKASGID
notes: predicted 77.6 kDa; also called α1WT; α1 full-length; source: Sf-9, recombinant baculovirus, cytosolic fraction; co-purified with β1-S on Strep-Tactin
binding [1]: binds | binding [2]: binds

B2: rat C-α1 (rat α1ΔN258), carboxy-terminally tagged with EYFP (domain or fragment, UniProt P19686 259-690)
chain: MKSTKPSLSPGKPQSSLVIPTSLFCKTFPFHFMLDRDLAILQLGNGIRRLVNKRDFQGKPNFEEFFEILTPKINQTFSGIMTMLNMQFVIRVRRWDNLVKKSSRVMDLKGQMIYIVESSAILFLGSPCVDRLEDFTGRGLYLSDIPIHNALRDVVLIGEQARAQDGLKKRLGKLKATLEHAHQALEEEKKKTVDLLCSIFPSEVAQQLWQGQIVQAKKFNEVTMLFSDIVGFTAICSQCSPLQVITMLNALYTRFDQQCGELDVYKVETIGDAYCVAGGLHRESDTHAVQIALMALKMMELSNEVMSPHGEPIKMRIGLHSGSVFAGVVGVKMPRYCLFGNNVTLANKFESCSVPRKINVSPTTYRLLKDCPGFVFTPRSREELPPNFPSDIPGICHFLDAYQHQGPNSKPWFQQKDAEDGNANFLGKASGVD
binding [3]: binds

B3: C-α1 splice variant of the nitric oxide sensitive guanylyl cyclase α1-subunit (human α1ΔN259) (domain or fragment, UniProt Q02108-1 259-690, looked up)
chain: MKSTKPSLSPSKPQSSLVIPTSLFCKTFPFHFMFDKDMTILQFGNGIRRLMNRRDFQGKPNFEEYFEILTPKINQTFSGIMTMLNMQFVVRVRRWDNSVKKSSRVMDLKGQMIYIVESSAILFLGSPCVDRLEDFTGRGLYLSDIPIHNALRDVVLIGEQARAQDGLKKRLGKLKATLEQAHQALEEEKKKTVDLLCSIFPCEVAQQLWQGQVVQAKKFSNVTMLFSDIVGFTAICSQCSPLQVITMLNALYTRFDQQCGELDVYKVETIGDAYCVAGGLHKESDTHAVQIALMALKMMELSDEVMSPHGEPIKMRIGLHSGSVFAGVVGVKMPRYCLFGNNVTLANKFESCSVPRKINVSPTTYRLLKDCPGFVFTPRSREELPPNFPSEIPGICHFLDAYQQGTNSKPCFQKKDVEDGNANFLGKASGID
notes: α1-subunit of nitric oxide sensitive guanylyl cyclase, human, amino-terminal deletion α1ΔN259; predicted 48 kDa; The name ΔN259 could also be read as loss of the first 259 residues; also called C-α1-splice form; source: Sf-9, recombinant baculovirus, cytosolic fraction; co-purified with β1-S on Strep-Tactin
binding [1]: binds | binding [2]: binds

B4: rat C-α1 (rat α1ΔN258), carboxy-terminally tagged with ECFP (domain or fragment, UniProt P19686 259-690)
chain: B2 chain
binding [4]: binds
